PMC13015889
No constants are given. Whether binding was seen depends on the method and setting. In cells and extracts the contact can be indirect. A result given as binding can be weak or reduced; the word gives no strength. For some assays here: Tags and fused reporters may be left off the sequences shown.

How the values were obtained:
[1] = molecular target: PICALM4A-red fluorescent protein (RFP) (Arabidopsis thaliana); experiment: co-IP; 6-day-old transgenic Arabidopsis seedlings expressing ERECTA-FLAG and PICALM4A-RFP under native promoters; α-RFP immunoprecipitation (RFP-Trap magnetic agarose), 4°C 1 hour, 150 mM NaCl, 1% Triton X-100
[2] = molecular target: PICALM3-GFP (pYBA-1132) (Arabidopsis thaliana); experiment: co-IP; transient expression in Arabidopsis protoplasts; RFP-Trap or GFP-Trap magnetic agarose as the methods say, 4°C 1 hour, 150 mM NaCl, 1% Triton X-100
[3] = molecular target: PICALM4A-GFP (pYBA-1132) (Arabidopsis thaliana); experiment: as above
[4] = molecular target: PICALM4B-GFP (pYBA-1132) (Arabidopsis thaliana); experiment: as above
[5] = molecular target: PICALM4A (co-IP with ERL1) (Arabidopsis thaliana); experiment: co-IP; ERL1 with PICALM4A, in vivo (fig. S7B); constructs and direction not told in the text shown

B1: ERECTA-FLAG (receptor, UniProt Q42371 25-976)
chain: EEGATLLEIKKSFKDVNNVLYDWTTSPSSDYCVWRGVSCENVTFNVVALNLSDLNLDGEISPAIGDLKSLLSIDLRGNRLSGQIPDEIGDCSSLQNLDLSFNELSGDIPFSISKLKQLEQLILKNNQLIGPIPSTLSQIPNLKILDLAQNKLSGEIPRLIYWNEVLQYLGLRGNNLVGNISPDLCQLTGLWYFDVRNNSLTGSIPETIGNCTAFQVLDLSYNQLTGEIPFDIGFLQVATLSLQGNQLSGKIPSVIGLMQALAVLDLSGNLLSGSIPPILGNLTFTEKLYLHSNKLTGSIPPELGNMSKLHYLELNDNHLTGHIPPELGKLTDLFDLNVANNDLEGPIPDHLSSCTNLNSLNVHGNKFSGTIPRAFQKLESMTYLNLSSNNIKGPIPVELSRIGNLDTLDLSNNKINGIIPSSLGDLEHLLKMNLSRNHITGVVPGDFGNLRSIMEIDLSNNDISGPIPEELNQLQNIILLRLENNNLTGNVGSLANCLSLTVLNVSHNNLVGDIPKNNNFSRFSPDSFIGNPGLCGSWLNSPCHDSRRTVRVSISRAAILGIAIGGLVILLMVLIAACRPHNPPPFLDGSLDKPVTYSTPKLVILHMNMALHVYEDIMRMTENLSEKYIIGHGASSTVYKCVLKNCKPVAIKRLYSHNPQSMKQFETELEMLSSIKHRNLVSLQAYSLSHLGSLLFYDYLENGSLWDLLHGPTKKKTLDWDTRLKIAYGAAQGLAYLHHDCSPRIIHRDVKSSNILLDKDLEARLTDFGIAKSLCVSKSHTSTYVMGTIGYIDPEYARTSRLTEKSDVYSYGIVLLELLTRRKAVDDESNLHHLIMSKTGNNEVMEMADPDITSTCKDLGVVKKVFQLALLCTKRQPNDRPTMHQVTRVLGSFMLSEQPPAATDTSATLAGSCYVDEYANLKTPHSVNCSSMSASDAQLFLRFGQVISQNSE
In the case of B1, the binding [1] is reported as “binds”.

B2: ERECTA-2xHA (pHBT-2xHA) (receptor, UniProt Q42371 25-976)
chain: B1 chain
With B2 the binding [2] was “binds”, the binding [3] was “binds” and the binding [4] was “binds”.

B3: ERECTA-LIKE1 (ERL1) (receptor, UniProt C0LGW6 26-966)
chain: MNNEGKALMAIKGSFSNLVNMLLDWDDVHNSDLCSWRGVFCDNVSYSVVSLNLSSLNLGGEISPAIGDLRNLQSIDLQGNKLAGQIPDEIGNCASLVYLDLSENLLYGDIPFSISKLKQLETLNLKNNQLTGPVPATLTQIPNLKRLDLAGNHLTGEISRLLYWNEVLQYLGLRGNMLTGTLSSDMCQLTGLWYFDVRGNNLTGTIPESIGNCTSFQILDISYNQITGEIPYNIGFLQVATLSLQGNRLTGRIPEVIGLMQALAVLDLSDNELVGPIPPILGNLSFTGKLYLHGNMLTGPIPSELGNMSRLSYLQLNDNKLVGTIPPELGKLEQLFELNLANNRLVGPIPSNISSCAALNQFNVHGNLLSGSIPLAFRNLGSLTYLNLSSNNFKGKIPVELGHIINLDKLDLSGNNFSGSIPLTLGDLEHLLILNLSRNHLSGQLPAEFGNLRSIQMIDVSFNLLSGVIPTELGQLQNLNSLILNNNKLHGKIPDQLTNCFTLVNLNVSFNNLSGIVPPMKNFSRFAPASFVGNPYLCGNWVGSICGPLPKSRVFSRGALICIVLGVITLLCMIFLAVYKSMQQKKILQGSSKQAEGLTKLVILHMDMAIHTFDDIMRVTENLNEKFIIGYGASSTVYKCALKSSRPIAIKRLYNQYPHNLREFETELETIGSIRHRNIVSLHGYALSPTGNLLFYDYMENGSLWDLLHGSLKKVKLDWETRLKIAVGAAQGLAYLHHDCTPRIIHRDIKSSNILLDENFEAHLSDFGIAKSIPASKTHASTYVLGTIGYIDPEYARTSRINEKSDIYSFGIVLLELLTGKKAVDNEANLHQLILSKADDNTVMEAVDPEVTVTCMDLGHIRKTFQLALLCTKRNPLERPTMLEVSRVLLSLVPSLQVAKKLPSLDHSTKKLQQENEVRNPDAEASQWFVQFREVISKSSI
With B3 the binding [5] was “binds”.
